# Results of single-concentration screens

Chains of the proteins cited; added tags and fusions are not shown. Residues count along the entry.
UniProt P9WPC5, whole entry: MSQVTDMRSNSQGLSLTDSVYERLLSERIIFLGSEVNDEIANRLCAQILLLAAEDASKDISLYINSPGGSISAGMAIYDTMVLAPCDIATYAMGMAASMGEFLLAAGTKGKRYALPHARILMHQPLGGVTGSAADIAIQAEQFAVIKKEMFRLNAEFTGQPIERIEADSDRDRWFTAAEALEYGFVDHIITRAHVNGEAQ
UniProt P9WPC3, whole entry partner: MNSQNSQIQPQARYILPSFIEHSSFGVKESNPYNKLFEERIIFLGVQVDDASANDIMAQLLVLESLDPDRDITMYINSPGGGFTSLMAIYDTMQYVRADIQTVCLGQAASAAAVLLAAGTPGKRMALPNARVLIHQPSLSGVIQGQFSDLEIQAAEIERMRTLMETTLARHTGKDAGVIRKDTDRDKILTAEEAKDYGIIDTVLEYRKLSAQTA
UniProt Q4DA54, 1-478: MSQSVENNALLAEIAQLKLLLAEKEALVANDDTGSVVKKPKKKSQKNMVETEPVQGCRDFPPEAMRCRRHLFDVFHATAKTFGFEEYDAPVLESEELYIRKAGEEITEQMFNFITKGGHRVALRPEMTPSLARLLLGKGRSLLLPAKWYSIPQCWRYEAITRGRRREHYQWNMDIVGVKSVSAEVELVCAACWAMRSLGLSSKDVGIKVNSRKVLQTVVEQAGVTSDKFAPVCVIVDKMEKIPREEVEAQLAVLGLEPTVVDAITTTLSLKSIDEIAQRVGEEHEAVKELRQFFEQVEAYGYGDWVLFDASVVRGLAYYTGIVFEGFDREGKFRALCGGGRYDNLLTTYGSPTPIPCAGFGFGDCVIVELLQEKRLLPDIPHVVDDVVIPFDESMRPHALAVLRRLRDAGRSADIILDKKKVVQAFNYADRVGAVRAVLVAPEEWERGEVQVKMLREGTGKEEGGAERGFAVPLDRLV
UniProt Q8IDJ8, 1-583: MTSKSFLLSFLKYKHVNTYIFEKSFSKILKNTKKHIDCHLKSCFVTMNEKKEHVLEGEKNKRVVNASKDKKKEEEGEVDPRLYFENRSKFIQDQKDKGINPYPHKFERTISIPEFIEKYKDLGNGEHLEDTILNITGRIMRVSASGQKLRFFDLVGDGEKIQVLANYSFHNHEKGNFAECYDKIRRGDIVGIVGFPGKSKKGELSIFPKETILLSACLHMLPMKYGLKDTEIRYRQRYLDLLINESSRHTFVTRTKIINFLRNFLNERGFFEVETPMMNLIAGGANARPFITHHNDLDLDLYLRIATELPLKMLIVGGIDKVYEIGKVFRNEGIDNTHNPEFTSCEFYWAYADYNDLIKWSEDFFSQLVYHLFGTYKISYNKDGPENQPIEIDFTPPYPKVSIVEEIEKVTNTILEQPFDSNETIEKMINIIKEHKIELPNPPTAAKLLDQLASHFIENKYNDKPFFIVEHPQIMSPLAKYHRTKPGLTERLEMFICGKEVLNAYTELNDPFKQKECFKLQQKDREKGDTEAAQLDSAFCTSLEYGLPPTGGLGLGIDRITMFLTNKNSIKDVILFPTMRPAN
UniProt I6X8D2, whole entry: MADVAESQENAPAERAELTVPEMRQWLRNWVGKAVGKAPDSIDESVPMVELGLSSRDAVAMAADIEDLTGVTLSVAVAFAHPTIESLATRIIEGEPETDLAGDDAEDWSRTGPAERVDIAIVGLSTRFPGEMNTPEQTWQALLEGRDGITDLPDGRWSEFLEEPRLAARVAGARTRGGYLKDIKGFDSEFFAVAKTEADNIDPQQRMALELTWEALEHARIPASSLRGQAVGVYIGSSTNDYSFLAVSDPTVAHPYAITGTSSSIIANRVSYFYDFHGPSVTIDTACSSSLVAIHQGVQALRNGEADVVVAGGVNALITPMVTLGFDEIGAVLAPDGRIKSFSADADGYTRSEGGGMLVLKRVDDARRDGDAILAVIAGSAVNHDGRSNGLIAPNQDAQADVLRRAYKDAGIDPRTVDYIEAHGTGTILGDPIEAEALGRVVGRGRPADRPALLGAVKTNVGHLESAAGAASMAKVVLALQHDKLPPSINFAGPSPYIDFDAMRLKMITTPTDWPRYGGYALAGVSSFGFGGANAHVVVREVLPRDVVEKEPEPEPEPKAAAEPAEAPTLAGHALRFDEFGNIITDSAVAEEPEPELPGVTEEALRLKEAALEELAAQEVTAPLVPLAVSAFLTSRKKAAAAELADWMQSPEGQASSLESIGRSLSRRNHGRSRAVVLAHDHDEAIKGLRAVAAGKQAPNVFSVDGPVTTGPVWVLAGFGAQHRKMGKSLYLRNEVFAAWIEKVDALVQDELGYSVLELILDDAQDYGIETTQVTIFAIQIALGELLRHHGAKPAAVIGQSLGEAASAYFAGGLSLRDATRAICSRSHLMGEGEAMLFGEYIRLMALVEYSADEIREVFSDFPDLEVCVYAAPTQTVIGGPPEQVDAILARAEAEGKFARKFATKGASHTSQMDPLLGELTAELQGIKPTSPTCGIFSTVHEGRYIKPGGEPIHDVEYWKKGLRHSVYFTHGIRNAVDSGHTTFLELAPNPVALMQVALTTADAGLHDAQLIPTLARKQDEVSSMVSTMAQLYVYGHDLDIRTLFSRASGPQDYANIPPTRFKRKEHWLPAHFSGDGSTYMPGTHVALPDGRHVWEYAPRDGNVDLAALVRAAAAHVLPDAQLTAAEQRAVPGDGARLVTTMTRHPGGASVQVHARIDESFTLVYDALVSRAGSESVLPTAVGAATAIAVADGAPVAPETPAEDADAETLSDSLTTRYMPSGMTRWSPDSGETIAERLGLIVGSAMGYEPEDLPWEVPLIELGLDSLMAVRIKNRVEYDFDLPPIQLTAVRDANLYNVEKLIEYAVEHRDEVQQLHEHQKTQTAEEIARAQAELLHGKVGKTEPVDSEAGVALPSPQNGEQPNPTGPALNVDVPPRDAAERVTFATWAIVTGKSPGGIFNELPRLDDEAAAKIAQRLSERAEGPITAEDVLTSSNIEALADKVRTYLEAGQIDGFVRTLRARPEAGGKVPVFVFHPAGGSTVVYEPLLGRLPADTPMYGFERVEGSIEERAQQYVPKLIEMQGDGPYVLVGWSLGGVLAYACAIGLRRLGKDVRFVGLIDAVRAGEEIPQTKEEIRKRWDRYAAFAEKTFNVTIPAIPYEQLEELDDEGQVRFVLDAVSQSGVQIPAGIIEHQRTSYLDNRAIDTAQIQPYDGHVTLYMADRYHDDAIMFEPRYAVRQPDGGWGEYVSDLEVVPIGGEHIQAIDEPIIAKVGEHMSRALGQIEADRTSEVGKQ

Measurements from “University of Dundee, Small-Polar-MMV Screening Library” (2021), ChEMBL document CHEMBL3988442.

The filed quantity is “Percent Effect” (%). How 0% and 100% were set is not recorded. Most values in the screen are low, and negative values occur. Compounds were drawn at random from those tested, without regard to their results.

ClpP1P2: 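Protease assay of ClpP1P2, read by the AMC dye that it sets free. Target: ClpP1P2, Mycobacterium tuberculosis (UniProt P9WPC5 and UniProt P9WPC3). Tested at 50 µM. Higher reads as stronger inhibition, judged from the few compounds that gave an IC50. Most other retested compounds had strongly negative values. Of about 69,000 compounds tested this way, about 10 (0.015%) reached 50% or more in at least one test.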
TcHisRS: 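Histidine-tRNA ligase, Trypanosoma cruzi CL Brener (UniProt Q4DA54). Enzyme assay of histidyl-tRNA synthetase; the read-out is not stated. Compounds at 30 µM. Higher reads as stronger inhibition (inferred: compounds with an IC50 in retests scored well above the rest). About 69,000 compounds were tested under these conditions; 0.045% (about 31) showed 50% or more at least once.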
PfKRS1: 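Enzyme assay of the cytosolic lysyl-tRNA synthetase in 384-well plates, read by luminescence. Target: Lysine-tRNA ligase, Plasmodium falciparum 3D7 (UniProt Q8IDJ8). Compounds at 30 µM. Direction is inferred from only a few compounds that gave an IC50; most scored high, so higher reads as stronger inhibition. About 69,000 compounds were tested under these conditions; 0.071% (about 49) showed 50% or more at least once.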
Pks13 thioesterase: 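Enzyme assay of the thioesterase domain of polyketide synthase 13; the read-out is not stated. Target: Polyketide synthase Pks13, Mycobacterium tuberculosis (UniProt I6X8D2). Concentration: 30 µM. The record gives no direction; the compounds picked for IC50 retests had high values, so higher reads as stronger inhibition. Of about 67,000 compounds tested this way, about 300 (0.46%) reached 50% or more in at least one test.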

{"compound": "CC(NCc1ccc(OCC(N)=O)cc1)c1ccc2c(c1)CCCC2", "stereo": "centres unmarked", "ClpP1P2": 0.2443, "TcHisRS": 7.143, "PfKRS1": 5.596, "Pks13 thioesterase": -28.38}
{"compound": "COc1ccc(OCCN(C)S(=O)(=O)c2cnn(C)c2)cc1", "ClpP1P2": 1.982, "TcHisRS": 2.632, "PfKRS1": 3.566, "Pks13 thioesterase": -7.916}
{"compound": "COc1ccc(Cl)cc1C(=O)NC(CC(=O)O)c1cccs1", "stereo": "centres unmarked", "ClpP1P2": 1.309, "TcHisRS": -2.254, "PfKRS1": 5.2, "Pks13 thioesterase": -8.369}
{"compound": "CC(C)C(=O)N1CCc2c(CN(C)Cc3ccco3)cncc2C1", "ClpP1P2": -20.19, "TcHisRS": 6.667, "PfKRS1": 1.014, "Pks13 thioesterase": -17.21}
{"compound": "COc1ccc(CN2CCC3(CC2)NC(=O)CC3c2ccncc2)cc1", "stereo": "centres unmarked", "ClpP1P2": -1.168, "TcHisRS": 1.639, "PfKRS1": 1.662, "Pks13 thioesterase": -3.203}
{"compound": "CN(C)c1ccc(C(=O)Nc2ccn(CC(N)=O)n2)cn1", "ClpP1P2": -7.402, "TcHisRS": 1.786, "PfKRS1": 8.48, "Pks13 thioesterase": 1.652}
{"compound": "CCC(CO)N(Cc1ccccn1)C(=O)c1ccc(F)c(F)c1", "stereo": "centres unmarked", "ClpP1P2": 4.532, "TcHisRS": 10.06, "PfKRS1": 12.57, "Pks13 thioesterase": -15.96}
{"compound": "N#Cc1ccc(CN2CCC(CN3CCOCC3)C2)cc1", "stereo": "centres unmarked", "ClpP1P2": -11.38, "TcHisRS": 2.97, "PfKRS1": -1.479, "Pks13 thioesterase": -0.3067}
{"compound": "CN(C)C(=O)CN1CCC2(C1)CN(CC1CCOCC1)C2", "ClpP1P2": -3.526, "TcHisRS": 1.075, "PfKRS1": 3.669, "Pks13 thioesterase": -44.36}
{"compound": "CN(C)c1ccc(CN2C[C@H]3CC[C@@H]2CN(C2CCOCC2)C3)cn1", "ClpP1P2": 6.437, "TcHisRS": 6.494, "PfKRS1": 6.982, "Pks13 thioesterase": -32.96}
{"compound": "CCOCCOCc1cccc(CNc2cncc(-n3cccn3)n2)c1", "ClpP1P2": -56.05, "TcHisRS": 4.891, "PfKRS1": -0.3054, "Pks13 thioesterase": 53.82}
{"compound": "CC(CO)NCc1csc2c1CCCC2", "stereo": "centres unmarked", "ClpP1P2": -3.517, "TcHisRS": 4.372, "PfKRS1": -3.535, "Pks13 thioesterase": -16.32}
{"compound": "COc1ccc(C)cc1NC(=O)Cn1nc(C)c(C#N)c1N", "ClpP1P2": -9.95, "TcHisRS": 2.703, "PfKRS1": 3.307, "Pks13 thioesterase": -35.04}
{"compound": "C1CCC(CO[C@@H]2CC[C@H]3[C@H]2OCCN3CC2CCOCC2)C1", "ClpP1P2": -7.629, "TcHisRS": -3.067, "PfKRS1": 3.659, "Pks13 thioesterase": -5.681}
{"compound": "Cc1ccc(O)c(CN(Cc2ccccc2)Cc2nccs2)n1", "ClpP1P2": -22.4, "TcHisRS": 9.639, "PfKRS1": 2.86}
{"compound": "CN(C)c1cc(C(=O)N2CCN(c3cnccn3)CC2)ccn1", "ClpP1P2": 4.187, "TcHisRS": 1.527, "PfKRS1": 0.7033, "Pks13 thioesterase": 14.97}
{"compound": "COc1ccccc1C(C)(C)NC(=O)Nc1ccc(F)c(C(N)=O)c1", "ClpP1P2": 7.886, "TcHisRS": 1.587, "PfKRS1": 2.074, "Pks13 thioesterase": -9.034}
{"compound": "O=C(NC1CC2(CCN(CCO)CC2)c2ccccc21)c1ccno1", "stereo": "centres unmarked", "ClpP1P2": 9.319, "TcHisRS": 5.063, "PfKRS1": 9.241, "Pks13 thioesterase": -19.66}
{"compound": "CN1CCN(Cc2cccnc2)C2(CCN(Cc3ccccn3)C2)C1=O", "stereo": "centres unmarked", "ClpP1P2": -7.903, "TcHisRS": 3.96, "PfKRS1": 2.122, "Pks13 thioesterase": -29.32}
{"compound": "COc1ccc(NC(=O)NCC(C)N2CCc3ccccc32)cc1", "stereo": "centres unmarked", "ClpP1P2": 5.897, "TcHisRS": 8.163, "PfKRS1": 0.8065, "Pks13 thioesterase": -9.656}
{"compound": "COc1cccc(/C=C/CCN2CCCN(C(C)=O)CC2)c1", "ClpP1P2": 1.766, "TcHisRS": -5.882, "PfKRS1": 1.681, "Pks13 thioesterase": -20.38}
{"compound": "COCC1CC2(CCN(C(=O)c3cncc(C)c3)CC2)CO1", "stereo": "centres unmarked", "ClpP1P2": 2.235, "TcHisRS": 8.743, "PfKRS1": -2.902, "Pks13 thioesterase": 19.88}
{"compound": "CC(C)c1noc(CN2CCN(C(=O)c3ccccc3F)CC2)n1", "ClpP1P2": 7.157, "TcHisRS": -1.916, "PfKRS1": 9.94, "Pks13 thioesterase": -11.35}
{"compound": "COc1ccc(-c2noc(CN3CC(n4cccn4)C3)n2)c(OC)c1", "ClpP1P2": 6.351, "TcHisRS": 0.8403, "PfKRS1": 2.042, "Pks13 thioesterase": -8.816}
{"compound": "COCCNC(=O)c1ccnn1-c1ccc2ccccn12", "ClpP1P2": -0.2459, "TcHisRS": -12.66, "PfKRS1": 3.732, "Pks13 thioesterase": -14.96}
{"compound": "O=C(NCCNC(=O)C1CC1)c1sccc1Br", "ClpP1P2": -11.28, "TcHisRS": 4.433, "PfKRS1": 7.656}
{"compound": "Cc1[nH]ccc1C(=O)N1CCOCC12CCCC2", "ClpP1P2": -8.668, "TcHisRS": 5.051, "PfKRS1": 2.675, "Pks13 thioesterase": -0.1466}
{"compound": "COCCn1ccnc1C1CCCN(c2cc(OC)nc(N)n2)C1", "stereo": "centres unmarked", "ClpP1P2": 3.34, "TcHisRS": 2.242, "PfKRS1": 4.404, "Pks13 thioesterase": -14.64}
{"compound": "COc1cccc(OCc2cc(C(=O)NC[C@H]3CCCN3)n[nH]2)c1", "ClpP1P2": -5.486, "TcHisRS": -1.626, "PfKRS1": 2.99, "Pks13 thioesterase": -4.203}
{"compound": "O=C1OCCC1N1CCN(c2cnccn2)CC1", "stereo": "centres unmarked", "ClpP1P2": 5.508, "TcHisRS": 3.941, "PfKRS1": 6.279, "Pks13 thioesterase": -24.73}
{"compound": "CC(=O)N1CCn2c(-c3ccccc3)cnc2C12CCNCC2", "ClpP1P2": 1.535, "TcHisRS": 5.747, "PfKRS1": 3.669, "Pks13 thioesterase": -5.309}
{"compound": "COc1cc(NC(=O)NCCO)ccc1N1CCOC1=O", "ClpP1P2": -3.339, "TcHisRS": 1.63, "PfKRS1": -1.233, "Pks13 thioesterase": -41.61}
{"compound": "CCN(Cc1cccc2c1OCO2)C(=O)Nc1cn[nH]c1", "ClpP1P2": -8.671, "TcHisRS": 3.134, "PfKRS1": -1.058, "Pks13 thioesterase": -12.35}
{"compound": "CC(NC(=O)CN1C=Nc2ccccc2S1(=O)=O)c1ccccc1", "stereo": "centres unmarked", "ClpP1P2": 5.216, "TcHisRS": 5.172, "PfKRS1": 8.065, "Pks13 thioesterase": 5.489}

Repeated from the top, 2 entries:

- CC(NCc1ccc(OCC(N)=O)cc1)c1ccc2c(c1)CCCC2 (centres unmarked) | ClpP1P2: 0.2443%; TcHisRS: 7.143%; PfKRS1: 5.596%; Pks13 thioesterase: -28.38%
- COc1ccc(OCCN(C)S(=O)(=O)c2cnn(C)c2)cc1 | ClpP1P2: 1.982%; TcHisRS: 2.632%; PfKRS1: 3.566%; Pks13 thioesterase: -7.916%